Assay results as given in PMC10541524.
Construct, isoform or probe ends are uncertain for at least one entry.

What was measured:
[1] = system: PhOBF1 (Petunia hybrida); test: EMSA; settings: LightShift EMSA Optimization and Control Kit (Pierce); 6% non-denaturing PAGE; pH and temperature not stated; recombinant protein; protein details: His (pET28a); label: 5' biotin on strand 1
[2] = system: PhOBF1 (Petunia hybrida); test: competition EMSA; settings: 50- and 100-fold unlabeled over N1; LightShift EMSA Optimization and Control Kit (Pierce); 6% non-denaturing PAGE; pH and temperature not stated; recombinant protein; protein details: His (pET28a)

Row | Sequence | binding result [1] | binding result [2]
1 | AATATGAATTAATTTACACGTGTATTGATTAAAAA (double strand) [pPhGA20ox3-WT probe] | binds | 
2 | AATATGAATTAATTTACACGTGTATTGATTAAAAA (double strand) [pPhGA20ox3-WT cold competitor] |  | binds
